Experimental data: PMC7819943, “Rice protein-binding microarrays: a tool to detect cis-acting elements near promoter regions in rice”
The other results are listed elsewhere or left out.

The chains behind the UniProt entries cited, without tags or fusion partners.
UniProt Q0JBA9, entry or part of it: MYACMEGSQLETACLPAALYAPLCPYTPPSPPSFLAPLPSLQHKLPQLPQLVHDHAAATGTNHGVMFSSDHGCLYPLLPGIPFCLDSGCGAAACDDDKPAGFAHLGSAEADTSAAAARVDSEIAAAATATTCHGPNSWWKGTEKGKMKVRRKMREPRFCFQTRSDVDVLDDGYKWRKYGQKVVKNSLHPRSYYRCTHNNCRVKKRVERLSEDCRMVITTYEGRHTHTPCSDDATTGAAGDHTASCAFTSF

Molecular target: OsWRKY34 (Oryza sativa, UniProt Q0JBA9 1-250)
Experiment: protein-binding microarray (RPBM); PBS, 2% BSA, 51.3 ng/ul salmon testes DNA, 50 uM zinc acetate, 200 nM TF, 25 C, 1 h; high values mean tight binding
Settings: protein: recombinant; tags: N-terminal polyhistidine and DsRed monomer fusion (pET32a); label: CyDye5-dUTP incorporated in the synthesized complementary strand; 3' TTTTT single-stranded linker to array surface; dsDNA, one strand shown
Outline: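 Transcription factors were each fused at the N-terminus to a polyhistidine tag plus DsRed and expressed in E. coli BL21-CodonPlus before Ni–NTA purification. Binding to a double-stranded custom Agilent array was carried out with 200 nM protein at 25 °C for 1 h in PBS, 2% BSA, salmon testes DNA and 50 µM zinc acetate. The binding signal is per-feature fluorescence intensity, in arbitrary units, on an Axon 4000B scanner.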

| Sequence | binding signal |
| --- | --- |
| TCTTTTCATGTTCATGTCCCTACCCTGTTAACCTCTCTATCGGAGTCACCTAGTGCAG | 9210 fluorescence intensity (a.u.) |
| TCTTGCATTTCTATTTTTCCTACACATGTTGTCAGAAATGCGGAGTCACCTAGTGCAG | 11700 fluorescence intensity (a.u.) |
| AAACTTCCAACTTTTCCGTCACATCAAACTTTCCTACACACGGAGTCACCTAGTGCAG | 9580 fluorescence intensity (a.u.) |
| GATGATCTTGGACGTCTGCAGGTTACTTTCGTGAACTATACGGAGTCACCTAGTGCAG | 9320 fluorescence intensity (a.u.) |
| GTCCTTCCAATCATACTACTTTTGTGTCAACCCTTTTACACGGAGTCACCTAGTGCAG | 11400 fluorescence intensity (a.u.) |
| AGGTGCATGTTGTTAGTATTTTCGTTGAGTCGGAGAGAATCGGAGTCACCTAGTGCAG | 8880 fluorescence intensity (a.u.) |
| ACCTTCACGTTCCTCGCCACAACAACACGTACAAAACAAACGGAGTCACCTAGTGCAG | 9320 fluorescence intensity (a.u.) |
| CCTTTCGCGCTCATCTTATCCCTCTGGTTTGACATCAGATCGGAGTCACCTAGTGCAG | 11700 fluorescence intensity (a.u.) |
| GTGAAGTGTGGTTTAAAAATGGTTGCCTGGTCACTTTATCCGGAGTCACCTAGTGCAG | 9020 fluorescence intensity (a.u.) |
| GCGAGTGAGGAGGGGCGGCGCGCGGTGGCCGGCGGGTGAGCGGAGTCACCTAGTGCAG | 8070 fluorescence intensity (a.u.) |
| CTGCCGCATGTGCCGTTTGACCGTTGAAAACGCCCTCCCCCGGAGTCACCTAGTGCAG | 8780 fluorescence intensity (a.u.) |
| GGATTTTGTTGTTTTAGTGTTTTTCTTTTACAATGATGGTCGGAGTCACCTAGTGCAG | 8140 fluorescence intensity (a.u.) |
| GCAGCTGATCGATCTGGTTTCTGCTTTGCTGCAACTCACTCGGAGTCACCTAGTGCAG | 8870 fluorescence intensity (a.u.) |
| AGATTATTTTGCTCGATTTTGAATTTTTCATGCATCCGTCCGGAGTCACCTAGTGCAG | 9150 fluorescence intensity (a.u.) |
| CCCACCTCGCCTTTCGATTGCGCGATCACCCACCTTTATACGGAGTCACCTAGTGCAG | 10000 fluorescence intensity (a.u.) |
| CCTCGCCGGCCATGGTCGCCCTCCGCTCCGACGTCCTCCACGGAGTCACCTAGTGCAG | 8070 fluorescence intensity (a.u.) |
| TAAATCCTGAACTTATTTTTGTTTCCTTCGTTTCAGATTACGGAGTCACCTAGTGCAG | 8620 fluorescence intensity (a.u.) |
| ACGCATATCGCTTTGCTCTGCTTCGCCTTCGCTTCCGCTTCGGAGTCACCTAGTGCAG | 8030 fluorescence intensity (a.u.) |
| AAATATGGTGGGCCCCACATGGCTGCGCCTCAAGCTTCTCCGGAGTCACCTAGTGCAG | 9100 fluorescence intensity (a.u.) |
| TCTGGTCTCCATCTTTTAGCAATAGTACGCATAATTTATACGGAGTCACCTAGTGCAG | 8500 fluorescence intensity (a.u.) |
| CACCACCACCACCACACCACGACAGACGGGCCAATCCACCCGGAGTCACCTAGTGCAG | 9350 fluorescence intensity (a.u.) |

| Sequence | binding signal |
| --- | --- |
| ATTATGTCGACACATTTTCTGGGTAATCACAGTCGATTTTCGGAGTCACCTAGTGCAG | 8300 fluorescence intensity (a.u.) |
| CGCTCCGCTCCATTCCATTCCATTCTCTTCTCGCCGCGTACGGAGTCACCTAGTGCAG | 8790 fluorescence intensity (a.u.) |
| TTCACATTTCGGTCAGCTCGTGTCCCAACAACGTTCAACGCGGAGTCACCTAGTGCAG | 8490 fluorescence intensity (a.u.) |
| GAAGAGGAGAGAGGAAGAGAGGTGGAAAGGGGAGGGGAAGCGGAGTCACCTAGTGCAG | 9460 fluorescence intensity (a.u.) |
| CTTTTCCTGCTTGGTTCGTTACTCCTGTTTAATTATTATTCGGAGTCACCTAGTGCAG | 14600 fluorescence intensity (a.u.) |
| GCTCTAGCCATCCGGCCCATCTAGCCCACGTCGCGTGTAACGGAGTCACCTAGTGCAG | 8280 fluorescence intensity (a.u.) |
| CCCGCCCAGAGTGTTCGTCCGCGCGTGCATGTCGTTGCATCGGAGTCACCTAGTGCAG | 10200 fluorescence intensity (a.u.) |
| CTGCTCTATATATATCCACTGTCTTACTTCTATGTGTGTTCGGAGTCACCTAGTGCAG | 11100 fluorescence intensity (a.u.) |
| ACCACTCCGGCACGACCACTTCTTGTTTAAATTCCTCACACGGAGTCACCTAGTGCAG | 11000 fluorescence intensity (a.u.) |
| ATATTTTGGTAGTTTAGTTTCATTTGGTAGTTTAGTTTCACGGAGTCACCTAGTGCAG | 8330 fluorescence intensity (a.u.) |
| GGGTGTAATTTTTGTTTTACATGTACGGAATTTTTTACTCCGGAGTCACCTAGTGCAG | 10800 fluorescence intensity (a.u.) |
| GGGAGGGGTGCGGCGCGGTGGCGCTGGAGCGGAGGAGCGTCGGAGTCACCTAGTGCAG | 9990 fluorescence intensity (a.u.) |
| GGTCCTCGTCGCCGTCATTGTCTTGATGTCTAGCTTCTGTCGGAGTCACCTAGTGCAG | 8940 fluorescence intensity (a.u.) |
| TGGTGGTCCAGTTTTTTGTTTGGTTAGGTGGATATGGCCACGGAGTCACCTAGTGCAG | 8560 fluorescence intensity (a.u.) |
| TATTATTTTCATGATCTATTTACATCATTGTACTCTACATCGGAGTCACCTAGTGCAG | 8400 fluorescence intensity (a.u.) |
| AGACGGAGGAGGACAAGGACATAGGGGAGGAGGGGCGAGGCGGAGTCACCTAGTGCAG | 9530 fluorescence intensity (a.u.) |
| GAGGCGCTGTTCGTGGGGTCGGTGGTGTCGGTGGCGGCGCCGGAGTCACCTAGTGCAG | 12000 fluorescence intensity (a.u.) |
| GCTGCTGGTAAATACACTCTTCTCTGAGCTTCCTCAAGCTCGGAGTCACCTAGTGCAG | 8940 fluorescence intensity (a.u.) |
| CCGCTGAATCCATCTCCACCTCCTCACCTATTCGCTAACGCGGAGTCACCTAGTGCAG | 10400 fluorescence intensity (a.u.) |
| GTAGATATATATTGTTCCACTTATCGTTTATTGCGCTCAACGGAGTCACCTAGTGCAG | 8560 fluorescence intensity (a.u.) |
| CCTCCTCTCTCTCGCTCGCTCCGCTCTTCTTGACAAGGAACGGAGTCACCTAGTGCAG | 8460 fluorescence intensity (a.u.) |

Another view of some results above:
Sequence,binding signal
CACCACCACCACCACACCACGACAGACGGGCCAATCCACCCGGAGTCACCTAGTGCAG,9350 fluorescence intensity (a.u.)
ATTATGTCGACACATTTTCTGGGTAATCACAGTCGATTTTCGGAGTCACCTAGTGCAG,8300 fluorescence intensity (a.u.)
CGCTCCGCTCCATTCCATTCCATTCTCTTCTCGCCGCGTACGGAGTCACCTAGTGCAG,8790 fluorescence intensity (a.u.)
